# Part of at least one peptide drawing is inferred or uncertain, most often the ends. Some compounds share one wording; it may come from a single statement. Square brackets hold non-standard residues; d marks the D form. Peptide text beside a SMILES is read from it. * marks the point of attachment. Dnp = O=[N+]([O-])c1ccc(*)c([N+](=O)[O-])c1; Mca = COc1ccc2c(CC(=O)*)cc(=O)oc2c1
# Biological target: T1, MT-SP1 (Homo sapiens, UniProt Q9Y5Y6)
# T1 construct: quenched MCA/DNP peptide probes as substrates
# T1 sequence (Q9Y5Y6 615-855 limits assumed): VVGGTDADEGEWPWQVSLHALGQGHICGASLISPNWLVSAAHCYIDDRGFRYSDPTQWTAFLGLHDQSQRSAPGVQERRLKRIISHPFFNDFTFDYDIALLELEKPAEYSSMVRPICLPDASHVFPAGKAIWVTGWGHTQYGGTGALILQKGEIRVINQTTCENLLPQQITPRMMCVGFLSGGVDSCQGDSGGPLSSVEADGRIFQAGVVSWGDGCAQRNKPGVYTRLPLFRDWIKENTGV
# Assay: Peptide probe cleavage assay with MT-SP1
# Format: biochemical
# Settings: role: substrate; for Probe Cleavage (pM/s) MT-SP1: 20 μM internally quenched peptide probe, 20 nM MT-SP1, 37° C, pH 7.4; for cleavability by MT-SP1, peptide probe, in words: internally quenched peptide probe; for kcat/KM by MT-SP1, peptide probe: lower bound stated in text
smiles,measurement,value
COc1ccc2c(CC(=O)NCC(=O)N[C@@H](CO)C(=O)N[C@@H](Cc3c[nH]cn3)C(=O)N[C@@H](CCC(N)=O)C(=O)N[C@@H](CO)C(=O)N[C@@H](CCCCN)C(=O)N[C@@H](CO)C(=O)NCC(=O)N[C@@H](CO)C(=O)N[C@@H](CCCCNc3ccc([N+](=O)[O-])cc3[N+](=O)[O-])C(=O)N[C@H](CCCNC(=N)N)C(=O)O)cc(=O)oc2c1 [HQSKS] (Mca-GSHQSKSGSK(Dnp)[dR]-OH),Probe Cleavage (pM/s) MT-SP1,3130 pM/s
same,"cleavability by MT-SP1, peptide probe, in words",high cleavability by MT-SP1
same,"kcat/KM by MT-SP1, peptide probe",greater than 2.5×10^4 M^−1 s^−1
COc1ccc2c(CC(=O)NCC(=O)N[C@@H](CO)C(=O)N[C@@H](Cc3c[nH]cn3)C(=O)N[C@@H](CCC(N)=O)C(=O)N[C@@H](CO)C(=O)N[C@@H](CCCNC(=N)N)C(=O)N[C@@H](CO)C(=O)NCC(=O)N[C@@H](CO)C(=O)N[C@@H](CCCCNc3ccc([N+](=O)[O-])cc3[N+](=O)[O-])C(=O)N[C@H](CCCNC(=N)N)C(=O)O)cc(=O)oc2c1 [HQSRS] (Mca-GSHQSRSGSK(Dnp)[dR]-OH),Probe Cleavage (pM/s) MT-SP1,3850 pM/s
same,"cleavability by MT-SP1, peptide probe, in words",high cleavability by MT-SP1
same,"kcat/KM by MT-SP1, peptide probe",greater than 2.5×10^4 M^−1 s^−1
COc1ccc2c(CC(=O)NCC(=O)N[C@@H](CO)C(=O)N[C@@H](Cc3c[nH]cn3)C(=O)N[C@@H](CCC(N)=O)C(=O)N[C@@H](CO)C(=O)N[C@@H](CCCNC(=N)N)C(=O)NCC(=O)NCC(=O)N[C@@H](CO)C(=O)N[C@@H](CCCCNc3ccc([N+](=O)[O-])cc3[N+](=O)[O-])C(=O)N[C@H](CCCNC(=N)N)C(=O)O)cc(=O)oc2c1 [HQSR] (Mca-GSHQSRGGSK(Dnp)[dR]-OH),Probe Cleavage (pM/s) MT-SP1,1400 pM/s
same,"cleavability by MT-SP1, peptide probe, in words",high cleavability by MT-SP1
same,"kcat/KM by MT-SP1, peptide probe",greater than 2.5×10^4 M^−1 s^−1
